Measurements: US20240261267A1, “METHODS FOR TREATING MULTIPLE SCLEROSIS” (Vanda Pharmaceuticals Inc., priority 2021, published 2024)
At least one structure is not confirmed: it was looked up by name or label, or the drawing left a doubt.

Tested on: normal appearing white matter (NAWM) of MS patients
Assay: Phase III OPTIMUM study, myelination estimated from standardized T1/T2 MRI
Assay type: in vivo, human
From the text: The impact of treatment on myelination changes in normal appearing white matter (NAWM) which sustains damage early in the MS disease course was compared
Myelination was estimated from T1 and T2-weighted magnetic resonance images collected at baseline, week 60 and week 108 in 427 patients treated with ponesimod and 428 with teriflunomide. Standardized T1/T2 was used to quantify myelination in non-lesional corpus callosum, cingulum, and remaining NAWM. Average myelination change (ΔM) from baseline at weeks 60 (w60) and 108 (w108) were compared across treatment arms using two-sided two sample t-tests, all p-values nominal.

C/C(O)=C(\C#N)C(=O)Nc1ccc(C(F)(F)F)cc1 [teriflunomide]
average myelination decrease, comparison across treatment arms (all regions and both visits (w60, w108), ponesimod 20 mg vs teriflunomide 14 mg): significantly larger
myelination change from baseline (standardized T1/T2) (non-lesional corpus callosum, cingulum, remaining NAWM, weeks 60 and 108, p<0.05): decreased significantly
